Experimental data from article PMC8396726.
Results are given in words; binding and its absence hold for the method and conditions named. For some of these results: In cells and extracts the contact can be indirect. Some entries that bind do so weakly or less than the wild type.

Sequences of proteins named here, by UniProt entry; tags and fusion partners are left off.
UniProt Q8IB67: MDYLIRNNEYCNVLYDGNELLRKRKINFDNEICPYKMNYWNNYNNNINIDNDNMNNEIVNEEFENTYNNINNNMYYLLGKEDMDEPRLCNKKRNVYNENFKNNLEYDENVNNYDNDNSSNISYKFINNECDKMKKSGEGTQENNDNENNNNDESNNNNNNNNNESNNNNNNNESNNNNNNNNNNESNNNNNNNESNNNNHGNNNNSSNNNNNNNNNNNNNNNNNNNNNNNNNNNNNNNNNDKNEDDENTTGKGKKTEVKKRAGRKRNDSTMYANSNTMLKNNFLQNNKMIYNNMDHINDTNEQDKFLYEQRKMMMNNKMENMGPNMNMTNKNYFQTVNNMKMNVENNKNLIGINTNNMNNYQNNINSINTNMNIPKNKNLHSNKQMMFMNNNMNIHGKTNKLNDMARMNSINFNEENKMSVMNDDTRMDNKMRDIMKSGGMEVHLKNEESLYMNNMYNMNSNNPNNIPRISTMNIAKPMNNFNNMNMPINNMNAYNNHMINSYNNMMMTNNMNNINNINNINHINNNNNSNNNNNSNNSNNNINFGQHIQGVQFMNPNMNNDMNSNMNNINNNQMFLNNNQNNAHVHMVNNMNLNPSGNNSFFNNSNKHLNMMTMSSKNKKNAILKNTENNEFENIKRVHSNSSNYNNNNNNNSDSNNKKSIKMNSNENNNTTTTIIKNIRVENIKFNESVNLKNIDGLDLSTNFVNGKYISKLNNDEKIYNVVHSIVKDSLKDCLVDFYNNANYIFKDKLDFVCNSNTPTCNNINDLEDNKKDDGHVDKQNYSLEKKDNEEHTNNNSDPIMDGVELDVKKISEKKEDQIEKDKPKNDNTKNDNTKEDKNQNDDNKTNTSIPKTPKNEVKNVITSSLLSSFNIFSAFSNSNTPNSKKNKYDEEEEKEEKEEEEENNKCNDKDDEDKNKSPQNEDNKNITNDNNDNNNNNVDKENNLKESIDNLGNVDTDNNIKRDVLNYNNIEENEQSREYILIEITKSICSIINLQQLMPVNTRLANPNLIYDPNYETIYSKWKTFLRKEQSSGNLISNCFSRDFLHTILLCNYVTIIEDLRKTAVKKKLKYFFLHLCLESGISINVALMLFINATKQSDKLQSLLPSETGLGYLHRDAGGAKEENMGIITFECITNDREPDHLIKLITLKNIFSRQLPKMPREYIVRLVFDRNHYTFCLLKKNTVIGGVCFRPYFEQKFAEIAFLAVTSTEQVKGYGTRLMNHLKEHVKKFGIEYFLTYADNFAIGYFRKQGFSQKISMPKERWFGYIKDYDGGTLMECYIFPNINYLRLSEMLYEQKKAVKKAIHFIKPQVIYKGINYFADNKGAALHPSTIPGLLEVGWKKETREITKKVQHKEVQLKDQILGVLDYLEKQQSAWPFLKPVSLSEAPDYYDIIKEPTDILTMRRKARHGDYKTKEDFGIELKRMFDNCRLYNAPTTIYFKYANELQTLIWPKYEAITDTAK
UniProt Q8IJW2: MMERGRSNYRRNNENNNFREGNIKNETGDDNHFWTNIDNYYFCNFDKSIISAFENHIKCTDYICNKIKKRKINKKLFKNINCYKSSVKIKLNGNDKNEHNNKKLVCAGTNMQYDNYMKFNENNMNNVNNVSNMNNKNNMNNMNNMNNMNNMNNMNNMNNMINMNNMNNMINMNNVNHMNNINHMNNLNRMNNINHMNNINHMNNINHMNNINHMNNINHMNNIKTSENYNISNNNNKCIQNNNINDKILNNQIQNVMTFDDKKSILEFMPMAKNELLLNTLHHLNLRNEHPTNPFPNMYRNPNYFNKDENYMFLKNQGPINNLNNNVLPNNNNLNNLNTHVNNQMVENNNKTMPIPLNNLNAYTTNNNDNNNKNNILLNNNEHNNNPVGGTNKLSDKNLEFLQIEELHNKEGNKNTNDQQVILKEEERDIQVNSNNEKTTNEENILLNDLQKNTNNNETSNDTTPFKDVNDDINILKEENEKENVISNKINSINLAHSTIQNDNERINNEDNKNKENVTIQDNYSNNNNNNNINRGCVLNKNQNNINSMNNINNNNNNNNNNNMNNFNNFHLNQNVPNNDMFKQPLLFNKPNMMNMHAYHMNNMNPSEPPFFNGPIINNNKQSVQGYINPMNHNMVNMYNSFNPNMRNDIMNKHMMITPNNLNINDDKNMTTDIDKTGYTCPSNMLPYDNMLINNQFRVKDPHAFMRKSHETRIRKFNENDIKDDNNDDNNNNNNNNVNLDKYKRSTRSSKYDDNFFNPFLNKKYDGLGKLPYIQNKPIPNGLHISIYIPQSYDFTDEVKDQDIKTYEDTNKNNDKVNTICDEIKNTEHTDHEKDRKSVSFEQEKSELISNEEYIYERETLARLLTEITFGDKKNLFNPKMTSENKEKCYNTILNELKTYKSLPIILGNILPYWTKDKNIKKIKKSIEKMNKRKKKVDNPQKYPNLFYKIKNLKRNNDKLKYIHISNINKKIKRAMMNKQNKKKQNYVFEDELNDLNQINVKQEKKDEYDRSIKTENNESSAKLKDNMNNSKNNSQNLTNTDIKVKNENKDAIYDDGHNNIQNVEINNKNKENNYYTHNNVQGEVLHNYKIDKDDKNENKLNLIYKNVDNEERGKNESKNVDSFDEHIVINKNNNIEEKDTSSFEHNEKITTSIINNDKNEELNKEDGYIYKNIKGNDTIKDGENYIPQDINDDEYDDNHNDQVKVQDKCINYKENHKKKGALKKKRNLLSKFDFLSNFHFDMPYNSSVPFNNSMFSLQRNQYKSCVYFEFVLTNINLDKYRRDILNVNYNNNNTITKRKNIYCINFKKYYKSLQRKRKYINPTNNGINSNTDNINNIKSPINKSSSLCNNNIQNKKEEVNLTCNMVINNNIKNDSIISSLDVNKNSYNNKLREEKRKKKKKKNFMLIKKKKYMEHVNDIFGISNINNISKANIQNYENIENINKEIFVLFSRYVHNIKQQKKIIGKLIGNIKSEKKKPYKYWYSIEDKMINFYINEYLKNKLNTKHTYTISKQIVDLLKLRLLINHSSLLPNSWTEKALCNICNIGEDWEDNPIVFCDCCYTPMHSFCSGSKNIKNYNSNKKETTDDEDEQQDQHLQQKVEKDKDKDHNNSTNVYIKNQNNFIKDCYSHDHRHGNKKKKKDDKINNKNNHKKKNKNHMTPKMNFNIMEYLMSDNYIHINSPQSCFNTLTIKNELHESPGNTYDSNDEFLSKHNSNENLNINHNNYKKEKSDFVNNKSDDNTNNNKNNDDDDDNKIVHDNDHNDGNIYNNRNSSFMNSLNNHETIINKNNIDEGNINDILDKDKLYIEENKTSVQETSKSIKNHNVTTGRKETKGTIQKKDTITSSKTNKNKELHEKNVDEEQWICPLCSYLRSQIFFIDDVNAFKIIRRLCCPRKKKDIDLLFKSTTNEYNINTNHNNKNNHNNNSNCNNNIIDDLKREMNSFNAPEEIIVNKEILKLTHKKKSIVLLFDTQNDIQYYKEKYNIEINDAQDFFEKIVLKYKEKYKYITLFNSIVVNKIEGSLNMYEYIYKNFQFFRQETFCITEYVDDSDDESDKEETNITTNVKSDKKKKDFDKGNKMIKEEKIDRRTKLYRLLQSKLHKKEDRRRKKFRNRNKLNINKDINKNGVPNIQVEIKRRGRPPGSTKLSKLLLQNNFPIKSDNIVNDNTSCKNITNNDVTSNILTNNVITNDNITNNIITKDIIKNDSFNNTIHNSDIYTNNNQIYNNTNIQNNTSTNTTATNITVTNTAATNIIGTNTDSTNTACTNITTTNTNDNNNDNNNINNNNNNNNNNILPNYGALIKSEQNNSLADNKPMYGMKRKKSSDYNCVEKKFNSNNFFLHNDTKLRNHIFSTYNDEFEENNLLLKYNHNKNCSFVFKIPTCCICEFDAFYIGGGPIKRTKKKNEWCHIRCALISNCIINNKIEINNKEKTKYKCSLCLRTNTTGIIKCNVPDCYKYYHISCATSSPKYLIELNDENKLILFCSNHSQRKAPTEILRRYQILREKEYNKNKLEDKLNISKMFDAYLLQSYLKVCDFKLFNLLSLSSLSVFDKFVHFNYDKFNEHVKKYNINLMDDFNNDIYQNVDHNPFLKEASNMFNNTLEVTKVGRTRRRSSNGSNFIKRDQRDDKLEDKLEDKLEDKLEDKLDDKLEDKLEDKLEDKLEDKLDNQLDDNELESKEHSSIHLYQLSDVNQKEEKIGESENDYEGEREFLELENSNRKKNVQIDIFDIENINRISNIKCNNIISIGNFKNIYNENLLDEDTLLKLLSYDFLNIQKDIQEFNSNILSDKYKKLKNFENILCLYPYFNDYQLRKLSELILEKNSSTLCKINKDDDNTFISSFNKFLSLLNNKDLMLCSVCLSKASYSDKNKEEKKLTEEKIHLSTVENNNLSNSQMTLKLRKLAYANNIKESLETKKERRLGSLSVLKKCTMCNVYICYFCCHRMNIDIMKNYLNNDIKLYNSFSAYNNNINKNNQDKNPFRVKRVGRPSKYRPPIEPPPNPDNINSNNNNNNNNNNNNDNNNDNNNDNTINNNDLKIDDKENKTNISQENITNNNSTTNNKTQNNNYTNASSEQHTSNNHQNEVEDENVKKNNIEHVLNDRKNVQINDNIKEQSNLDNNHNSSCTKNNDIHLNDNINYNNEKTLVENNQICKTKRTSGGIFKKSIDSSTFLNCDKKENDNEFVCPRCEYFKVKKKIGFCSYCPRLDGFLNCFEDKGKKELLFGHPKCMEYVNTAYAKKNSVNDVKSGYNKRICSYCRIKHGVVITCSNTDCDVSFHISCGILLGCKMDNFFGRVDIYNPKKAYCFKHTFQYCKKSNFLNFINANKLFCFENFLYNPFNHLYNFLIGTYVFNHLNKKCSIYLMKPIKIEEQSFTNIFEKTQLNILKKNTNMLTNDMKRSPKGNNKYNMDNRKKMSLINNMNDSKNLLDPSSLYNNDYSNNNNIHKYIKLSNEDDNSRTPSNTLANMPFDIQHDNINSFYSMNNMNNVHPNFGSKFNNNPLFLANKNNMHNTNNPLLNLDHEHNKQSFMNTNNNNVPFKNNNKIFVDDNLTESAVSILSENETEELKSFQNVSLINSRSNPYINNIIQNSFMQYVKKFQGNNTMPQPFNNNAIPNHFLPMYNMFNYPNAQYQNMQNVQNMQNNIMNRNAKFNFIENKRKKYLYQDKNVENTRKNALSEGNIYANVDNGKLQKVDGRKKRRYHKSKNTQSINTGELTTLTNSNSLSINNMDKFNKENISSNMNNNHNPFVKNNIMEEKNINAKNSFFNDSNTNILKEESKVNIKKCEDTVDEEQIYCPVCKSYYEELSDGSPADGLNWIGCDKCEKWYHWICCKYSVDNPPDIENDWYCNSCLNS

Experiments:
[1] = molecular target: PfPHD2 (P. falciparum (endogenous in 3D7 parasites)) (UniProt Q8ILC9); experiment: co-IP; lysates of 3D7 wild-type parasites; agarose conjugated with anti-PfPHD1 or anti-PfPHD2 antibodies; blot with anti-PfPHD2 or anti-PfPHD1 antibodies
[2] = molecular target: PfGCN5::PTP (P. falciparum 3D7) (UniProt Q8IB67); experiment: SEC; native complex from nuclear extract of PfGCN5::PTP parasites (IgG beads, TEV protease elution) on a Superose 6 column; fractions blotted with anti-PTP, anti-PfPHD1 and anti-PfPHD2 antibodies and tested for HAT activity
[3] = molecular target: PfPHD1 (P. falciparum (endogenous in 3D7 parasites)) (UniProt Q8IJW2); experiment: co-IP; nuclear extracts of trophozoites of the PfGCN5::PTP line; IP with anti-PfPHD1 or anti-PfPHD2 antibodies (agarose conjugated); blot with anti-protein C antibodies; pre-immune sera as control
[4] = molecular target: PfPHD2 (P. falciparum (endogenous in 3D7 parasites)) (UniProt Q8ILC9); experiment: as above
[5] = molecular target: PfPHD1 (P. falciparum (endogenous in 3D7 parasites)) (UniProt Q8IJW2); experiment: co-IP; lysates of 3D7 wild-type parasites; agarose conjugated with anti-PfPHD1 or anti-PfPHD2 antibodies; blot with anti-PfPHD2 or anti-PfPHD1 antibodies
[6] = molecular target: PfPHD1 (P. falciparum (endogenous in 3D7 parasites)) (UniProt Q8IJW2); experiment: SEC; native complex from nuclear extract of PfGCN5::PTP parasites (IgG beads, TEV protease elution) on a Superose 6 column; fractions blotted with anti-PTP, anti-PfPHD1 and anti-PfPHD2 antibodies and tested for HAT activity

| binding [1] | binding [2] | binding [3] | binding [4] | binding [5] | binding [6] | Substance |
| --- | --- | --- | --- | --- | --- | --- |
| binds | binds |  |  |  |  | PfPHD1 (from UniProt Q8IJW2 1-3853) |
|  |  | binds | binds |  |  | PfGCN5::PTP (from UniProt Q8IB67 1-1465) (enzyme) |
|  | binds |  |  | binds | binds | PfPHD2 (from UniProt Q8ILC9 1-5757) |
